System: LL/2 cells
Settings: SCID-beige mice, topical 100 μL×3 daily
Protocol: In vivo tests were performed as follows: SCID-beige mice aged 6 weeks were injected intravenously with 1×10^6 LL/2 cells.
The treatment groups were:
Group A (Negative Control): Untreated
Volumes of primary tumors were measured twice weekly.

## CC(C)C[C@H](NC(=O)[C@H]1O[C@@H]1C(=O)O)C(=O)NCCCCN=C(N)N (relative stereo) [Group E-64, L-trans-Epoxysuccinyl-leucylamido (4-guanidino) butane]
  survival compared to both the negative and positive control groups: better survival

— US20210268122A1, “INHIBITION OF S[…] PROTEIN INHIBITORS OF CYSTEINE PROTEASES” (DYVE BIOSCIENCES, INC., priority 2017, published 2021)
